Experimental data: the RNAGym collection of RNA variant scans (doi:10.1126/science.aae0568)
Variants at the background level are over-represented here.

B1: tRNA (parent)
chain: GUUCCGUUGGCGUAAUGGUAACGCGUCUCCCUCCUAAGGAGAAGACUGCGGGUUCGAGUCCCGUACGGAACG

Variants of: B1
Assay: yeast fitness relative to wild type (ratio to wild type); higher = fitter; tRNA-Arg(CCU), competitive growth, 37 C, YPD
How it was run: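 Start and end populations of a pooled competition were compared by 100-nucleotide paired-end sequencing of gene amplicons. The Saccharomyces cerevisiae strains carried tRNA-Arg(CCU) gene variants at the native genomic locus, synthesised with a 3% per-site mutation rate at 69 sites, and competed in YPD at 37°C for 24 hours in six parallel replicates. Darwinian fitness relative to wild type was based on the change in genotype frequencies. Genotypes required ≥ 100 starting reads, and estimates < 0.5 were set to 0.5.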

GUUACGUUGGCGUAAUGGUAACGCGUCUCCCUCGUAAGGAGAAGACUGCGGGUUCGAGUCCCGUCCGGAACG and GUUCCGUUGGCGUAAUGGUAACGCGUGUACCUACUAAGGAGAAGACUGCGGGUUCGAGUCCCGUACGGAACG cannot be ordered by yeast fitness: no more than 0.5 for the first, no more than 0.5 for the second.

GGUCCGUUGGCGUAAUGGUAACGCGUCACCCUCCUAAGGAGAAGACUGCGGGUCCGAGUCCGGUACGGAACG and GUUCGGUUGGCGCAAUGGUAACGCGUCUCCCUCCUAAGGAGACGACUGCGGGUUAGAGUCCCGUACGGAACG cannot be ordered by yeast fitness: no more than 0.5 for the first, no more than 0.5 for the second.

GUGACGUUAGCGUAAUGGUAAUGCGUCUCCCUCCUCAGGAGAAGACUGCGGGUUCGAGUCCCGUACGGAACG and GUUCCAUUGGCGUAAUGGUAACGCGUCUCCCUCGUAGGGAGAAGACUGCGGGUUCGAGUCCCGUACGGAACG cannot be ordered by yeast fitness: no more than 0.5 for the first, no more than 0.5 for the second.

GUUCCGUUGGCGUAAUGGUAACGCGUCUCCCUACUAAGGAGGAGACUGCGGGUUGGAGUCCCGUACGGAACG and GUUGCGUUGGCGUACUGGUAACGCGUCUCCCUCCUAAGGAGAAGAGUGCGGGUUCGAGUCCCCUAAGGAACG cannot be ordered by yeast fitness: no more than 0.5 for the first, no more than 0.5 for the second.

GUUCCGUUGGCGUAAUGGUAACGCGCCUACCUCCUCAGGAGAAGACUGCGGGUUCGAGUCCCGUACGGAACG and GUUCCGUUGGCGUAAUGGUAACGCGUCUUCCUCCUUAGGAGAAGACUGCGGGUUCGAGUCUCGUACGGAACG cannot be ordered by yeast fitness: no more than 0.5 for the first, no more than 0.5 for the second.

Going from GUCCCGUUGGCGUAAUGGUAACGCGUCUCCCUCCUAAGGAGAAGACUGCGGGUUCGAGACGCGUACGGAACG to GUUCCGUUGGCGUAAUGGUAACGGGUCUCCCCCCUAAGGAGAAGACUGGGGGUUCGAGUCCCGUACAGCACG, the yeast fitness falls from 0.587 to no more than 0.5.

GUACCGUUGGCGUACUGGUAACGCGUCUCCGUGCUAAGGAGAAGACUGCGGGUUCGAGUCCCGUACGGAACG and GUUCCGUUGGCGUAAUGGUAACGCGCCUCCUUUCUAAGGAGAAGACUGCGGGUUCGAGUCCCGUACAGAACG cannot be ordered by yeast fitness: no more than 0.5 for the first, no more than 0.5 for the second.

GUUCCGUUGGAGUAAUGGUAACGCGUCUCCCUCCUAAGGAGAAGAGUGCGGGUUCGAGUCCCGUGCGGAACG and GUUCUGUUGGCGUGAUGGUAUCGCGUCUCCCUCCUAAGGAGAAGACUGCGGGUUCCAGUCCCGUACGCAACG cannot be ordered by yeast fitness: no more than 0.5 for the first, no more than 0.5 for the second.

First: GUUCCGUUGGCGUAAUGGUAACGCGUCUUCCUCCUAAGGAGAACACUGCGGGUACGAGUCCCGUACGGAACG
Second: GUUCCGUUGGCGUAAUGGUAACGCGUCUGCCUGCUAAGGAGAAGACUGCGGCUUCGAGUCCCGUAUGGAACG
The yeast fitness of the first is higher: 0.55 for the first, no more than 0.5 for the second.

Compared with GAUACGUUGGCGCAAUGGUAACGCGUCUCCCUCCUAAGGAGAAGACUGCGGGUUCGAGUCCCGUACGCAACG, GUUCCGUUGGCGUAAUGGUAAUGCGUCUCCCUUCUAAGGAGAAGACUGCGGAUUCGAGUCCCGUACGGAACG is higher in yeast fitness: no more than 0.5 for the first, 0.566 for the second.

GGUCCGUUGGCAUAAUGGUAUCGCGUCUGCCUCCUAAGGAGAAGACUGCGGGUUCGACUCCCGUACGGAACG and GCUCCGUUGGCGUAUUGGUUACGCGUCUCCCUCCUAAGGAGAAGACUGUGGGUUCGAGUCCCGUACGGAACG cannot be ordered by yeast fitness: no more than 0.5 for the first, no more than 0.5 for the second.

GAUCCGUUGGCGUAAUGGUAACGCGUCUACCUCCUAAGGGGAAGACUGGGGGUUCGAGUCCCGUACGGAACG and GUUCUGUUGGCGUAAUGGUAACGCGUUUCCCUCCUAAGGCGAAGACUGCGGGUUCGCGUCACGUACAGAACG cannot be ordered by yeast fitness: no more than 0.5 for the first, no more than 0.5 for the second.

GAUCCGUUGGCGUAAUGGUAACGCGUCUCCCUCCUAAGGACAAGACUGCCGGUUCGGGUCCCGUACGGAACG and GUUUCGUUGGCGUAAUGGUAACGAGUCUCGCUCCUAAGGAGAAGACUGCGGGUUUGAGUCCCGUACGGAACG cannot be ordered by yeast fitness: no more than 0.5 for the first, no more than 0.5 for the second.

GUACCGUAGGCGUAAUGGUAACGCGUCUCCCUCCUAAGGAGCAGACUGCGGCUUCGAGUCCCGUACGGAACG and GUUCCGUUGGCAUAAUGGUAACACGUGUCGCUCCUAAGGAGAAGACUGCGGGUUCGAGUCCCGUACGGAACG cannot be ordered by yeast fitness: no more than 0.5 for the first, no more than 0.5 for the second.

GUUGCGUCGGCGUAAUGGUAACGCGUCUCCCUCCUAAGGAGAAGACUGCGGGUUCGAGGCCCGUACGGAACG and GUUCCGUUGGCGUAUUGGUAAUGCGUCUCCGUCCUAAGGAGAAGACUGCGGGAUUGCGUGCCGUACCGAACG cannot be ordered by yeast fitness: no more than 0.5 for the first, no more than 0.5 for the second.

GUGCCGUUGGCGUAAUGGUAACGGGUCUCGCUCCUAAGGAGAAGACUGCGGGUUCGAGUCCCGUACGGAACG and GUUCCGUUGGCGUAAUGGUAACGCGUCUCCCUCCUAAGGAGAAGACUGCGGGUUCGAGUCCCGUUUGGAGCG cannot be ordered by yeast fitness: no more than 0.5 for the first, no more than 0.5 for the second.

GUUCCGUUGGCGUAAUGGUAACGCGUCUCCUUCCUAAGGAGAAGACUGCGGGUCCGAGUCCCGUACGGGGCG and GUUCCGUUGGCAUAAUGGUCACGCGUCUCCCACGUAAGGAGAAGACUGCGGGUUCGCGUCCCGUAUGGAACG cannot be ordered by yeast fitness: no more than 0.5 for the first, no more than 0.5 for the second.

Going from GUUCCGUUGUCGUAAUGGUAACGCGUCUCGCUCCUAAGGAGAAGACUGAGGGCUCGAGUCCCGUAGGGAACG to GUUCCGUUGGUGUAAUGGUAACGCGUCUCCCUCCUUAGGAGAAGACUGCGGGUUCGAGUCCCGUACGGAUCG, the yeast fitness rises from no more than 0.5 to 0.694.

GAUCCGUUGGCGUAAUGGUGACGCGUCUCCCUCCUAAGGAGAAAACUGCGGGUUCGAGUCCCGUACGGAUCG and GCUCCGUGGGCGUAAUGGUAACGCGUCUCCCGCCAAAGGAGAAGACUGCGGGUUCGAGUCCCGUACGGAACG cannot be ordered by yeast fitness: no more than 0.5 for the first, no more than 0.5 for the second.
